The chains behind the UniProt entries cited, without tags or fusion partners. Residues count along the entry.
UniProt Q63722, residues 34-1219: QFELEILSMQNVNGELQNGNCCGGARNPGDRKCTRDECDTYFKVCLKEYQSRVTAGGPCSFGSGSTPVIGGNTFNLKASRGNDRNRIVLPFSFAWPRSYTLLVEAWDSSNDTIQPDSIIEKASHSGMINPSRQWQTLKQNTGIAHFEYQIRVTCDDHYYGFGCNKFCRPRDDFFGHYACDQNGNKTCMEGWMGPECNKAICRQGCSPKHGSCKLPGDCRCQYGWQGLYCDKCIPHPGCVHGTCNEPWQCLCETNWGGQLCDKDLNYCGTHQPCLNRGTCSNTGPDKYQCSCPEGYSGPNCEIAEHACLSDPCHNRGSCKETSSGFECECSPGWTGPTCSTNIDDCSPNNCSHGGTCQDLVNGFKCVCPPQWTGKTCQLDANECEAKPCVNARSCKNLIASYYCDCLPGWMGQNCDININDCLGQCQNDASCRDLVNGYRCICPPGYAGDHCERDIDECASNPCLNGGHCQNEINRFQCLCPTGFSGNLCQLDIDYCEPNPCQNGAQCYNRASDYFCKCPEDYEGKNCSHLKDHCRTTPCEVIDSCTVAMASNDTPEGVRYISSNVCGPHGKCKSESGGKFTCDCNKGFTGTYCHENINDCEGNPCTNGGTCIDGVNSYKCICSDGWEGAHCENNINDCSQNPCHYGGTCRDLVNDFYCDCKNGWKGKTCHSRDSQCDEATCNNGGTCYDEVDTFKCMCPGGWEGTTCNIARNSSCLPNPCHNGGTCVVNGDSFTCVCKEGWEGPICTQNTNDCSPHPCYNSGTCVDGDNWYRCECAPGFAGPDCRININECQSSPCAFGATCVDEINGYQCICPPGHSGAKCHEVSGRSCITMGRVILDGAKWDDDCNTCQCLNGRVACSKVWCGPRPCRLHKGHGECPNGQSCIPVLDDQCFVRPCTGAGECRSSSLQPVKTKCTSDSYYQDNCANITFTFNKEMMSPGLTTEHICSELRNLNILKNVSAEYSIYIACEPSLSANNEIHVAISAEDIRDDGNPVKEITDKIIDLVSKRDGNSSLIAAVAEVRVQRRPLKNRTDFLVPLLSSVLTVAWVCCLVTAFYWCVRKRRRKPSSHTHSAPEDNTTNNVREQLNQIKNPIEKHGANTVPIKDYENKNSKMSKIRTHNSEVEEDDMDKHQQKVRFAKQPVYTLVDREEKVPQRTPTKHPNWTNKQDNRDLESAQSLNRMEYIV
UniProt G3V7W1: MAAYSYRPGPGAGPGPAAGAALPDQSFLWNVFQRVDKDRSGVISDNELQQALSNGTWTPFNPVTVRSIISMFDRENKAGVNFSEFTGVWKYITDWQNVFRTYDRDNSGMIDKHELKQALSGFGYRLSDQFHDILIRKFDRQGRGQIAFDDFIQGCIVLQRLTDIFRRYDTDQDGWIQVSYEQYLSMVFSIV

In publication PMC12343779:

B1: SEC31A (protein, UniProt Q9Z2Q1 1-1249)
chain: MKLKEIDRTAMQAWSPAQNHPIYLATGTSAQQLDATFSTNASLEIFELDLSDPSLDMKSCATFSSSHRYHKLIWGPHKMDSKGDVSGVLIAGGENGNIILYDPSKIIAGDKEVVIAQKDKHTGPVRALDVNIFQTNLVASGANESEIYIWDLNNFATPMTPGAKTQPPEDISCIAWNRQVQHILASASPSGRATVWDLRKNEPIIKVSDHSNRMHCSGLAWHPDVATQMVLASEDDRLPVVQMWDLRFASSPLRVLENHARGILAIAWSMADPELLLSCGKDAKILCSNPNTGEVLYELPTNTQWCFDIQWCPRNPAVLSAASFDGRIRVYSIMGGSIDGLRQKQVDKLSSSFGNLDPFGTGQPLPPLQIPQQTSQHSIVLPLKKPPKWIRRPVGASFSFGGKLVTFENVTGQPQQGAEQPRRQPVFISQVVTEKDFLSRSEQLQHVVQSQGFISYCQKKIDASQTDFEKNVWSFLKVNFEEDSRGKYLELLGYRREDLGEKIALALNRVDGSDVALKDSDRVAQSDGEESPAEEGQLLGERIKEEKQECDFLPSAGGGTFNISVSGDIDGLITRALLTGNFESAVDLCLHDNRMADAIILAIAGGQELLAQTQKKYFAKSQSKITRLITAVVMKNWKEIVESCDLKNWREALAAVLTYAKPDEFSALCDLLGARLESEGDSLLRTQACLCYICAGNVERLVACWTKAQDGSNPLSLQDLIEKVVILRKAVQLTQALDTNTVGALLAEKMSQYANLLAAQGSIAAALAFLPDNTNQPDIVQLRDRLCRAQGRSVPGQESSRSSYEGQPLPKGGPGPLAGHPQVSRVQSQQYYPQVRIAPTVTTWSDRTPTALPSHPPAACPSDTQGGNPPPPGFIMHGNVVPNSPAPLPTSPGHMHSQPPPYPQPQPYQPAQQYSLGTGGSAVYRPQQPVAPPASKRYPNAPYVSPVASYSGQPHMYTAQPASSPTSSSAPLPPPPSSGASFQHGGPGAPPSSSAYALPPGTTGTPPAASELPASQRTGPQNGWNDPPALNRVPKKKKLPENFMPPVPITSPIMNPGGDPQPQGLQQQPSASGPRSSHASFPQPHLAGGQPFHGIQQPLAQTGMPPSFSKPNTEGAPGAPIGNTIQHVQALPTEKITKKPIPDEHLILKTTFEDLIQRCLSSATDPQTKRKLDDASKRLECLYDKLRDQTLSPTIISGLHSIARSIETRNYSEGLTVHTHIVSTSNFSETSAFMPVLKVVLSQASKLGV
B2: SEC13 (protein, UniProt Q5XFW8 1-322)
chain: MVSVINTVDTSHEDMIHDAQMDYYGTRLATCSSDRSVKIFDVRNGGQILIADLRGHEGPVWQVAWAHPMYGNILASCSYDRKVIIWKEENGTWEKTHEHSGHDSSVNSVCWAPHDYGLILACGSSDGAISLLTYTGEGQWEVKKINNAHTIGCNAVSWAPAVVPGSLIDQPSGQKPNYIKKFASGGCDNLIKLWREEEDGQWKEEQKLEAHSDWVRDVAWAPSIGLPTSTIASCSQDGRVFIWTCDDASGNMWSPKLLHKFNDVVWHVSWSITANILAVSGGDNKVTLWKESVDGQWVCISDVNKGQGSVSASITEGQQNEQ
B3: CD63 (protein, UniProt P28648 1-238)
chain: MAVEGGMKCVKFLLYVLLLAFCACAVGLIAIGVAVQVVLKQAITHETTAGSLLPVVIIAVGAFLFLVAFVGCCGACKENYCLMITFAIFLSLIMLVEVAVAIAGYVFRDQVKSEFSKSFQKQMQNYLTDNKTATILDKLQKENKCCGASNYTDWERIPGMAKDRVPDSCCINITVGCGNDFKESTIHTQGCVETIAAWLRKNVLLVAGAALGIAFVEVLGIIFSCCLVKSIRSGYEVM

molecular target: JAG1 (rat (endogenous in rat liver tissue)) (UniProt Q63722); assay: affinity purification with mass spectrometry; JAG1 immunoprecipitated from rat liver tissue lysate (IgG control), SDS-PAGE and silver staining, mass spectrometry of the immunoprecipitated proteins, STRING PPI network

Row | Molecule | binding
1 | ALG-2 (from UniProt G3V7W1 1-191) | binds
2 | B1 | binds
3 | B2 | binds
4 | B3 | binds

No constants are given. Whether binding was seen depends on the method and setting. Binding seen in cells or lysates may run through a third protein. A yes stands for co-enrichment or nearness to the bait. Other partners may have been found.
